This passage reports log2 fold change results from the supplement of paper PMC10849652.

By UniProt entry, the sequences of proteins in these tests, tags left out. Where a name states a change or a piece, a line headed by the entry shows the natural chain unless it says otherwise.
UniProt Q9NZJ7, whole entry, looked up: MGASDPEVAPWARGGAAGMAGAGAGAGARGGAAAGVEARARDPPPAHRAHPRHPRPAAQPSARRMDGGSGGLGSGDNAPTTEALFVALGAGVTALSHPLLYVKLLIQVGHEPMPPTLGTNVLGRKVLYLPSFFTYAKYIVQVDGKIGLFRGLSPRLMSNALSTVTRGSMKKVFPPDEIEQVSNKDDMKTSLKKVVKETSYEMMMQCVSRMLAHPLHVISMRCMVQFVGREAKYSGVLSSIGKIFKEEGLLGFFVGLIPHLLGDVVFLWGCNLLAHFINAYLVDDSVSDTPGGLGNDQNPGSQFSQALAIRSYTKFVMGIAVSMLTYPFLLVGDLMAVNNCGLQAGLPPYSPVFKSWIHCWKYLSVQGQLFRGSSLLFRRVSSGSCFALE
UniProt P13995: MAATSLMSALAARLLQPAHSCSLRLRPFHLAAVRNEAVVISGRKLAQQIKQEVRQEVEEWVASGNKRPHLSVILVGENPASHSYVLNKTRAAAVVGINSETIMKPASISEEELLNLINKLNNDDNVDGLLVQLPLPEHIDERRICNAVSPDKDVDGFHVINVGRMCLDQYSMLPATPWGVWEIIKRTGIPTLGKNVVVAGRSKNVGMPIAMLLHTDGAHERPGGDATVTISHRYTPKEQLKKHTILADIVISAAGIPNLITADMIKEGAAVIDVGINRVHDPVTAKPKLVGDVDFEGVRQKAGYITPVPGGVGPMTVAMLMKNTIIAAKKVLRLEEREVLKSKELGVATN
UniProt P00156: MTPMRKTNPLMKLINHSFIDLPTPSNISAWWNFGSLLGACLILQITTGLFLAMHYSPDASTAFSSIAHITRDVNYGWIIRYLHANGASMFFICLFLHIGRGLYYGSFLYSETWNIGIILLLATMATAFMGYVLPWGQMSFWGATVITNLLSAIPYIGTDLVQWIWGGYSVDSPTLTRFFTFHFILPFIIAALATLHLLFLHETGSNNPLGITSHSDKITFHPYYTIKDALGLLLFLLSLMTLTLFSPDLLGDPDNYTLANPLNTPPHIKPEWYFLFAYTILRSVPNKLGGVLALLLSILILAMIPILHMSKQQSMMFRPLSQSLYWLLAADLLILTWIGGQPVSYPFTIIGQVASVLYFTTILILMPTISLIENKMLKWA
UniProt O94832: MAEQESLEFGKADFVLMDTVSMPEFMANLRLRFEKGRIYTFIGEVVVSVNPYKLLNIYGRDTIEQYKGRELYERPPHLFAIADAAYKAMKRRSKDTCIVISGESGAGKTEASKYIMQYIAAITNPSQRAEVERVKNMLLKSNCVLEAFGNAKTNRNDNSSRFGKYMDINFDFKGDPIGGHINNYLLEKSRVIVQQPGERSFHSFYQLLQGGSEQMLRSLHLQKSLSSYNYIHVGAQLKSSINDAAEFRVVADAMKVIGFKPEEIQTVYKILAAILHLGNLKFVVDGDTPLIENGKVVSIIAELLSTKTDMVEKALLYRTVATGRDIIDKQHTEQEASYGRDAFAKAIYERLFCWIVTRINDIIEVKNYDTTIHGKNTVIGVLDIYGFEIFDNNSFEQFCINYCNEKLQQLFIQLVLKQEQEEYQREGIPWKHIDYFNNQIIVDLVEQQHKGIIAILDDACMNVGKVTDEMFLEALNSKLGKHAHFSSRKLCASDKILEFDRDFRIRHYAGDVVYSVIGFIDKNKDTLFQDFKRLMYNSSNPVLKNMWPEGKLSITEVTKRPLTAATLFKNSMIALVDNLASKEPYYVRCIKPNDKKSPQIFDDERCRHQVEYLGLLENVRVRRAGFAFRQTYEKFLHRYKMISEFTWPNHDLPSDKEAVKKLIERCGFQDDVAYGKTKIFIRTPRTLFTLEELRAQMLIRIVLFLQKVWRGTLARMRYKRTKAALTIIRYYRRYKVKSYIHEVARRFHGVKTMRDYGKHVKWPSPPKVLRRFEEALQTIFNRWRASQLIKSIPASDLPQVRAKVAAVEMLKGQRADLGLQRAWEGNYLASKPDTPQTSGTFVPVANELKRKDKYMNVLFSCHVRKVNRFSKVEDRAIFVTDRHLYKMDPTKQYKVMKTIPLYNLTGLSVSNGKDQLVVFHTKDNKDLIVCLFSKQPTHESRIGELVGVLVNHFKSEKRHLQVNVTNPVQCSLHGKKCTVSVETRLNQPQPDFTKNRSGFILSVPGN
MTHFD1, A0A384N5Y3, UniProt A0A384N5Y3, whole entry, looked up: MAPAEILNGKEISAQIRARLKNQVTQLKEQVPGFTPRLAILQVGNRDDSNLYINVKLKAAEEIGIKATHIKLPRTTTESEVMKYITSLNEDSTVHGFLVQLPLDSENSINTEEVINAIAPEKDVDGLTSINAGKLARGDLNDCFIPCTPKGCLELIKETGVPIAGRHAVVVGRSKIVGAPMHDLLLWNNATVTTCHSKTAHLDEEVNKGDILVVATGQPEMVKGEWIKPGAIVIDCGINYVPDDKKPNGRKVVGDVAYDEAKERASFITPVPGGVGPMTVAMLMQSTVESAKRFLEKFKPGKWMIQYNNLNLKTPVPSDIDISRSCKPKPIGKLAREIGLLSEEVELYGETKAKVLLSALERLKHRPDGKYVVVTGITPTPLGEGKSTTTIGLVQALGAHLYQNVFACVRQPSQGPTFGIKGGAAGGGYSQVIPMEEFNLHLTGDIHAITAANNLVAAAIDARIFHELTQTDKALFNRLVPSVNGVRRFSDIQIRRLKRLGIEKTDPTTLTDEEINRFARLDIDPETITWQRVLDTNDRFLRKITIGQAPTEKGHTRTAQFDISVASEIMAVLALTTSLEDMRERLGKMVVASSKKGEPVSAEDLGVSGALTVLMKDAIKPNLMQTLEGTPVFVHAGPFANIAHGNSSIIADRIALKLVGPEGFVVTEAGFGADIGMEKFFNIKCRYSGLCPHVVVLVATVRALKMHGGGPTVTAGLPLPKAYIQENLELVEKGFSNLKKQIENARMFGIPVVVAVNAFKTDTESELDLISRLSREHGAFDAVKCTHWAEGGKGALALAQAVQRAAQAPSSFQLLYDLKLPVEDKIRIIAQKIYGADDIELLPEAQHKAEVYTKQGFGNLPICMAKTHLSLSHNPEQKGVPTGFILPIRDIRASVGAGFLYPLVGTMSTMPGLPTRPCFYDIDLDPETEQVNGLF
UniProt Q99417: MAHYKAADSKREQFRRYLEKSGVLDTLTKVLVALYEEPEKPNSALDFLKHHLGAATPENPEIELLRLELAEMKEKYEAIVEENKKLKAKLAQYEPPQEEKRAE
UniProt Q9NVV4: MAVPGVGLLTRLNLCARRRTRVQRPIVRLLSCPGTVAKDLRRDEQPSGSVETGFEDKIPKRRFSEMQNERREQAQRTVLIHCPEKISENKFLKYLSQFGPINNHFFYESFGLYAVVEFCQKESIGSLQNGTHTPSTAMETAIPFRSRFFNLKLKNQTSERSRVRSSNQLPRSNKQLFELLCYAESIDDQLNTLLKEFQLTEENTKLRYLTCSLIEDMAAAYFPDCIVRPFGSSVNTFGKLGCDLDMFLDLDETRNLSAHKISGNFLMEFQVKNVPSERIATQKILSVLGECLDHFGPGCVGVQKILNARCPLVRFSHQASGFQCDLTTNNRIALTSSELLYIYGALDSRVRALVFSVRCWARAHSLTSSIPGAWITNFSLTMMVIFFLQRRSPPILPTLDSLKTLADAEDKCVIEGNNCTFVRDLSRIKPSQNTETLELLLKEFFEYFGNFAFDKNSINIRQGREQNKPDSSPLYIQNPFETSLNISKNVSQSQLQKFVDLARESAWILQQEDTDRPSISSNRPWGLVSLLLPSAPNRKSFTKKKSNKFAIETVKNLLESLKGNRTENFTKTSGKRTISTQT
UniProt Q13330: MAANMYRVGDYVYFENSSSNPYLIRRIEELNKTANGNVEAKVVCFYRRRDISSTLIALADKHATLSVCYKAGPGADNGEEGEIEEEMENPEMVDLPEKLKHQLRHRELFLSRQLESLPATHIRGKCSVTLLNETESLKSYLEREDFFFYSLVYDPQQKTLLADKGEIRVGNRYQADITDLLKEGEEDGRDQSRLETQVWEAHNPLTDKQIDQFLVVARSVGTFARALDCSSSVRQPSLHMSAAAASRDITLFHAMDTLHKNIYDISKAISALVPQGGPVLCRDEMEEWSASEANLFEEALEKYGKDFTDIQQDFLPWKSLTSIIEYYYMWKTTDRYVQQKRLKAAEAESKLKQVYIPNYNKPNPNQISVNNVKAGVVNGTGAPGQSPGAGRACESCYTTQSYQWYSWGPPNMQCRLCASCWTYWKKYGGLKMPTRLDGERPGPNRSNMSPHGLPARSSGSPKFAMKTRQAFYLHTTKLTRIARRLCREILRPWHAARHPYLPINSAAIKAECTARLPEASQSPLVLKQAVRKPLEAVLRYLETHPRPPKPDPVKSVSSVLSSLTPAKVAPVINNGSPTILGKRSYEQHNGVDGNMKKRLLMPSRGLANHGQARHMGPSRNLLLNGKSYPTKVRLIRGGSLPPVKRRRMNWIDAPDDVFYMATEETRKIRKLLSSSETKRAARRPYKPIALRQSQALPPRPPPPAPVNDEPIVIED
UniProt Q96S97: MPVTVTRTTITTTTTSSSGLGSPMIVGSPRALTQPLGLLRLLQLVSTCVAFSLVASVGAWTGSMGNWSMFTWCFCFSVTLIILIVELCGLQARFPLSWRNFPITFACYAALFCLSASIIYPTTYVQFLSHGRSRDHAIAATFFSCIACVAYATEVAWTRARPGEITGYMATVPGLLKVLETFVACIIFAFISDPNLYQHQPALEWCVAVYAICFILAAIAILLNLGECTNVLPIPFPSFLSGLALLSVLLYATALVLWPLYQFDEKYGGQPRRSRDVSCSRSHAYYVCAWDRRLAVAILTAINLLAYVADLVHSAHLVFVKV
UniProt Q9UM54, whole entry, looked up: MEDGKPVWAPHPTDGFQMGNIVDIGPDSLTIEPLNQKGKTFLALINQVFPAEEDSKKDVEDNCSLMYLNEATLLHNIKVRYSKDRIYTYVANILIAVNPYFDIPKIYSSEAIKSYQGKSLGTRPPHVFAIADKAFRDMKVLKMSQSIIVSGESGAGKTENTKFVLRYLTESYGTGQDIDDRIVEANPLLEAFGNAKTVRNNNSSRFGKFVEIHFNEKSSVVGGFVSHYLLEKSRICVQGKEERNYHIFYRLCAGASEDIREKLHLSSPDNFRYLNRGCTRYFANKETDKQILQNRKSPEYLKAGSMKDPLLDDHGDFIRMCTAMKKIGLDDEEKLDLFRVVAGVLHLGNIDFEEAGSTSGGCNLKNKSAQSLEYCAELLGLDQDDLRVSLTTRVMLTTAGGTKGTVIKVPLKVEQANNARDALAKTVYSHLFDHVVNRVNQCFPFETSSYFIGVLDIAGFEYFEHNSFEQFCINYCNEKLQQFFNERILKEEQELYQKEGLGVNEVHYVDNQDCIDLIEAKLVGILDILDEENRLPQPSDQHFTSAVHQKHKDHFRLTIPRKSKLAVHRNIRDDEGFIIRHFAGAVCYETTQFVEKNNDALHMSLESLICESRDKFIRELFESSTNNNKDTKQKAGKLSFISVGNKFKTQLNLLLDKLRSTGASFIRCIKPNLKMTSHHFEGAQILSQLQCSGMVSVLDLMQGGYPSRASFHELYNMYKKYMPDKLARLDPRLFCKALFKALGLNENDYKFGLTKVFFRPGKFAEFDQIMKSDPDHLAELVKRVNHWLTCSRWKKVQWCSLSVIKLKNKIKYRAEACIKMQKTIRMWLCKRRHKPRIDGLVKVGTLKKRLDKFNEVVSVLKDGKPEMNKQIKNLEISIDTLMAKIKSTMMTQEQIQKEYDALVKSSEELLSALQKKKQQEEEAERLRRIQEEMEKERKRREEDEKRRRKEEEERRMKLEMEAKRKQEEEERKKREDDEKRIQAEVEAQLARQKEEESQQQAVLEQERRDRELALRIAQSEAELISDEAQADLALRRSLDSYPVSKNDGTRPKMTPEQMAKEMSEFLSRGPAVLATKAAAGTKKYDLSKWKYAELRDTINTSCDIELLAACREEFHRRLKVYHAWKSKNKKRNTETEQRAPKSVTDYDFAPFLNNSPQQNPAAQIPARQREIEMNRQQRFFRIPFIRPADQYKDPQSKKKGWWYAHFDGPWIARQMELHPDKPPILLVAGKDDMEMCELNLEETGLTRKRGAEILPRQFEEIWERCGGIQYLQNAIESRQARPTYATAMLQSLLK
UniProt Q9HD23: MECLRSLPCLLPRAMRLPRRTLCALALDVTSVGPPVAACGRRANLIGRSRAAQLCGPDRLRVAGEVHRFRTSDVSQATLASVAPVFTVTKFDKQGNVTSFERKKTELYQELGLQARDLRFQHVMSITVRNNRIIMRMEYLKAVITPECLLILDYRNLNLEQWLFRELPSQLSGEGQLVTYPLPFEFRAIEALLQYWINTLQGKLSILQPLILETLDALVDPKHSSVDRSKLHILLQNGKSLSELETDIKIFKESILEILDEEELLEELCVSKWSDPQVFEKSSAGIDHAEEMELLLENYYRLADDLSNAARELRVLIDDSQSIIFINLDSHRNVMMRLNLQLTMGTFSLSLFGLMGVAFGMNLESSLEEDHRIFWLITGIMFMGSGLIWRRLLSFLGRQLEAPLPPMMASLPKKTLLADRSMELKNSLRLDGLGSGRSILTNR

The other results are listed elsewhere or left out.

Compound in this experiment: NC(=O)c1cnc(N[C@@H]2CCCC[C@@H]2N)nc1Nc1cccc(-n2nccn2)c1
Description: log2 fold change, soluble protein after heating vs DMSO (PISA); higher = thermal stabilisation; K562 cells, 10 uM, 30 min; active = over 0.2 and 3.5 SD of the protein, either way, in both replicates (recomputed). The method in brief: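 Aliquots of K562 cells (2×10^6 cells/mL) treated with 10 μM compound for 30 min were heated for 3 min over 48°C-58°C. After pooling and extraction in PBS with 0.5% NP-40 at 4°C, soluble protein from a 21,000xg, 90 min spin was quantified by TMTpro 16plex LC-MS/MS with channel sums equalised. Thermal stability is expressed against control samples, from duplicates, as a log2 fold change.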
With MTCH1 (UniProt Q9NZJ7), the log2 fold change is inactive: -0.052.
Turning to MTHFD2 (UniProt P13995), the log2 fold change is inactive: 0.002.
Turning to MT-CYB (UniProt P00156), the log2 fold change was inactive: -0.063.
Turning to MYH11 isoform 2 (UniProt P35749), the log2 fold change is inactive: 0.018.
As for MT-ATP6 (UniProt P00846), the figure is inactive: -0.007.
Turning to MYO1D (UniProt O94832), the log2 fold change was inactive: -0.082.
On to MTHFD1, A0A384N5Y3, for which the log2 fold change was inactive: -0.033.
As to MRRF (UniProt Q96E11), the log2 fold change was inactive: -0.024.
As for MTMR12 (UniProt Q9C0I1), the log2 fold change is inactive: -0.025.
On to MSN (UniProt P26038), for which the log2 fold change is inactive: -0.011.
On to MSMO1 (UniProt Q15800), for which the log2 fold change is inactive: -0.024.
Regarding MRPS10 (UniProt P82664), the log2 fold change is inactive: 0.004.
Turning to MTMR6 (UniProt Q9Y217), the log2 fold change was inactive: 0.034.
Turning to MUCL1 (UniProt Q96DR8), the log2 fold change is inactive: 0.388.
Consider MRPS2 (UniProt Q9Y399), for which the log2 fold change was inactive: -0.079.
Regarding MRPS15 (UniProt P82914), the log2 fold change is inactive: 0.06.
For the target MRPS27 isoform 2 (UniProt Q92552), the log2 fold change was inactive: -0.015.
Consider MSRB2 (UniProt Q9Y3D2), for which the log2 fold change was inactive: 0.012.
Consider MYCBP (UniProt Q99417), for which the log2 fold change was inactive: -0.091.
Turning to MRPS11 (UniProt P82912), the log2 fold change was inactive: 0.028.
As for MRPS33 (UniProt Q9Y291), the figure is inactive: 0.02.
As for MRTFA (UniProt Q969V6), the figure is inactive: -0.197; as for MYL6B (UniProt P14649), inactive: -0.024; as for MTM1 (UniProt Q13496), inactive: 0.084.
MRPS36 (UniProt P82909): the log2 fold change is inactive: -0.03.
Take MTRR isoform 1 (UniProt Q9UBK8): the log2 fold change is inactive: -0.043.
As for MRPS24 (UniProt Q96EL2), the figure is inactive: -0.016.
As for MTPAP (UniProt Q9NVV4), the log2 fold change was inactive: 0.075.
Consider MRPL9 (UniProt Q9BYD2), for which the log2 fold change was inactive: 0.023.
The result for MRPS30 (UniProt Q9NP92) reads inactive: 0.138; that for MTMR14 (UniProt Q8NCE2), inactive: -0.08.
For MTX2 (UniProt O75431), the log2 fold change is inactive: 0.032.
The result for MTA1 (UniProt Q13330) reads inactive: -0.06.
As for MYADM (UniProt Q96S97), the log2 fold change was inactive: -0.112.
Regarding MTOR (UniProt P42345), the log2 fold change was inactive: -0.102.
Regarding MYO6 isoform 6 (UniProt Q9UM54), the log2 fold change is inactive: -0.001.
As for MYH9 (UniProt P35579), the log2 fold change was inactive: 0.047.
Take MRPS18A isoform 2 (UniProt Q9NVS2): the log2 fold change is inactive: 0.031.
As for MRS2 (UniProt Q9HD23), the log2 fold change is inactive: -0.01.
